PubChem BioAssay AID248 (DTP/NCI, 2004)
The list shows only some results of the screen, not a fair sample: it gathers tests that were run many times, whatever their T/C, doses with no T/C, and many T/C values between a quarter and a half above the control. Other doses and runs of a compound stand elsewhere. T/C is the treated group as % of the vehicle group. Some doses have a count of surviving animals in place of a T/C: the source files T/C as zero there, which appears to mark a toxic dose or a test without result, not a measured value. Some survivor counts are full or nearly so, which does not show that the dose was tolerated: survival well below the control is almost never listed, so the zero probably covers shortened survival too. Counts of survivors are from the toxicity check (mostly the fifth day) where no day follows; animals may have died later. Schedules are NCI's codes, read here as Q, the interval in days (D) or hours (H), X, the number of doses. Some schedule codes hold Z or #, which are not explained here. Some entries were tested several times; their values stand side by side, smallest first. For survival time, the PubChem record calls one and a half times the control and up active, and a quarter to a half above the control has no call in these data; cut-offs in other NCI protocols can differ.

Test system: L1210 leukemia ip in BDF1 mice, survival T/C
Assay: NCI In Vivo Anticancer Drug Screen. Data for tumor model L1210 Leukemia (intraperitoneal) in B6D2F1 (BDF1) mice
Conditions: T/C endpoint: mean survival time, higher T/C = longer survival
[1] = dose: 150.0 mg/kg/injection, schedule: Q01DX001 (ip), vehicle: saline
[2] = dose: 300.0 mg/kg/injection, schedule: Q01DX001 (ip), vehicle: saline
[3] = dose: 400.0 mg/kg/injection, schedule: Q04DX002 (ip), vehicle: saline with Tween-80
[4] = dose: 200.0 mg/kg/injection, schedule: Q04DX002 (ip), vehicle: Klucel (hydroxypropylcellulose) (HPC)
[5] = dose: 400.0 mg/kg/injection, schedule: Q04DX002 (ip), vehicle: Klucel (hydroxypropylcellulose) (HPC)
[6] = dose: 400.0 mg/kg/injection, schedule: Q04DX003 (ip), vehicle: saline
[7] = dose: 400.0 mg/kg/injection, schedule: Q01DX009 (ip), vehicle: Klucel (hydroxypropylcellulose) (HPC)
[8] = dose: 400.0 mg/kg/injection, schedule: Q01DX001 (ip), vehicle: saline

**Q.** What does the source list for `CCCCCCCC[n+]1ccc(C#N)cc1`?
**A.** survivor count [1]: 0 of 6; survivor count [2]: 0 of 6

**Q.** How did the survivor count (dose: 100.0 mg/kg/injection, schedule: Q04DX002 (ip), vehicle: saline + alcohol) turn out when `Cc1ccc(S(=O)(=O)O)cc1.[Ag]` was run?
**A.** 2 of 3

**Q.** What about the survivor count (dose: 100.0 mg/kg/injection, schedule: Q04DX002 (ip), vehicle: saline with Tween-80) of the same compound?
**A.** 1 of 3

**Q.** What about the survivor count (dose: 200.0 mg/kg/injection, schedule: Q04DX002 (ip), vehicle: saline with Tween-80) of the same compound?
**A.** 0 of 3

**Q.** What about the survivor count [3] of the same compound?
**A.** 0 of 3

**Q.** For `C#CC(C)OCC1CO1` (stereo unspecified), which survivor count (dose: 400.0 mg/kg/injection, schedule: Q04DX003 (ip), vehicle: saline sonified) is on record?
**A.** 1 of 6

**Q.** For `CSc1ncnc2c1ncn2C1OC(CCC(N)=O)C(O)C1O` (stereo unspecified), which survivor count [4] is on record?
**A.** 3 of 3

**Q.** With `c1ccc(NC2CCN(C3(c4ccccc4)CCCCC3)CC2)cc1` as the compound, how does the survivor count (dose: 200.0 mg/kg/injection, schedule: Q04DX002 (ip), vehicle: saline) read?
**A.** 0 of 3

**Q.** And the survivor count (dose: 400.0 mg/kg/injection, schedule: Q04DX002 (ip), vehicle: saline)?
**A.** 0 of 3

**Q.** For `c1ccc(C2C(CN3CCCCCC3)C2c2ccccc2)cc1` (stereo unspecified), which survivor count (dose: 100.0 mg/kg/injection, schedule: Q04DX002 (ip), vehicle: Klucel (hydroxypropylcellulose) (HPC)) is on record?
**A.** 1 of 3 and 2 of 3

**Q.** And the survivor count [4]?
**A.** 0 of 3

**Q.** What about the survivor count [5] of the same compound?
**A.** 0 of 3

**Q.** `CCCCOC(=O)/C(=C\c1cccc(OC)c1)NC(=O)c1ccccc1` was tested. Which survivor count (dose: 100.0 mg/kg/injection, schedule: Q01DX009 (ip), vehicle: other) did it give?
**A.** 6 of 6

**Q.** With `O=C1NC2C3C=CC(C3)C12` (stereo unspecified) as the compound, how does the survivor count [4] read?
**A.** 1 of 3

**Q.** What about the survivor count [5] of the same compound?
**A.** 0 of 3

**Q.** For `NNc1cc(NN)c2[nH]cnc2n1`, which survivor count (dose: 200.0 mg/kg/injection, schedule: Q01DX001 (ip), vehicle: Klucel (hydroxypropylcellulose) (HPC)) is on record?
**A.** 3 of 6

**Q.** And the survivor count (dose: 400.0 mg/kg/injection, schedule: Q01DX001 (ip), vehicle: Klucel (hydroxypropylcellulose) (HPC))?
**A.** 3 of 6

**Q.** For `C=COCCN(C)C`, which survivor count [6] is on record?
**A.** 0 of 6

**Q.** `O/N=C/Cc1ccccc1` was tested. Which survivor count (dose: 400.0 mg/kg/injection, schedule: Q04DX002 (ip), vehicle: DMSO) did it give?
**A.** 0 of 3

**Q.** How did the survivor count (dose: 200.0 mg/kg/injection, schedule: Q01DX009 (ip), vehicle: saline with Tween-80) turn out when `CN(C)C(=O)c1cccc(NC(=O)NCc2cccc(N3C(N)=NC(N)=NC3(C)C)c2)c1` was run?
**A.** 1 of 6

**Q.** What about the survivor count (dose: 200.0 mg/kg/injection, schedule: Q04DX003 (ip), vehicle: saline with Tween-80) of the same compound?
**A.** 2 of 6

**Q.** What about the survivor count (dose: 400.0 mg/kg/injection, schedule: Q01DX009 (ip), vehicle: saline with Tween-80) of the same compound?
**A.** 1 of 6

**Q.** What about the survivor count (dose: 400.0 mg/kg/injection, schedule: Q04DX003 (ip), vehicle: saline with Tween-80) of the same compound?
**A.** 0 of 6

**Q.** For `O=C(Nc1ccc(C2=NCCN2)cc1)c1cc(C(=O)Nc2ccc(C3=NCCN3)cc2)cc(C(=O)Nc2ccc(C3=NCCN3)cc2)c1`, which survivor count (dose: 2.8 mg/kg/injection, schedule: Q01DX Z (ip), vehicle: saline) is on record?
**A.** 2 of 6

**Q.** How did the survivor count [3] turn out when `N=C(N)SCC(=O)c1ccc([N+](=O)[O-])cc1` was run?
**A.** 2 of 3

**Q.** With `O=C(O)C1=CCCc2ccc3ccccc3c21` as the compound, how does the survivor count [7] read?
**A.** 4 of 6

**Q.** How did the survivor count [6] turn out when `CC[N+](C)(C)CCCOC(=O)C1C2CC3OC(=O)C1C3C2` (stereo unspecified) was run?
**A.** 0 of 3

**Q.** What does the source list for `Nc1ccc(N(CCCl)CCN(CCCl)c2ccc(N)cc2)cc1`?
**A.** T/C (dose: 3.0 mg/kg/injection, schedule: Q01DX009 (ip), vehicle: saline): 143 % of control; T/C (dose: 4.4 mg/kg/injection, schedule: Q01DX009 (ip), vehicle: carboxymethylcellulose (CMC)): 127 % of control; T/C (dose: 5.0 mg/kg/injection, schedule: Q01DX009 (ip), vehicle: carboxymethylcellulose (CMC)): 135 % of control; T/C (dose: 6.6 mg/kg/injection, schedule: Q01DX001 (ip), vehicle: carboxymethylcellulose (CMC)): 128 % of control; T/C (dose: 6.6 mg/kg/injection, schedule: Q01DX009 (ip), vehicle: carboxymethylcellulose (CMC)): 125 % of control; T/C (dose: 6.6 mg/kg/injection, schedule: Q01DX009 (ip), vehicle: saline): 143 % of control; T/C (dose: 10.0 mg/kg/injection, schedule: Q01DX001 (ip), vehicle: carboxymethylcellulose (CMC)): 125 and 141 % of control; survivor count (dose: 10.0 mg/kg/injection, schedule: Q01DX009 (ip), vehicle: carboxymethylcellulose (CMC)): 4 of 6; survivor count (dose: 30.0 mg/kg/injection, schedule: Q01DX001 (ip), vehicle: saline): 2 of 6; survivor count (dose: 60.0 mg/kg/injection, schedule: Q01DX001 (ip), vehicle: saline): 0 of 6; survivor count (dose: 75.0 mg/kg/injection, schedule: Q01DX001 (ip), vehicle: carboxymethylcellulose (CMC)): 0 of 6; survivor count (dose: 120.0 mg/kg/injection, schedule: Q01DX001 (ip), vehicle: saline): 0 of 6; survivor count (dose: 150.0 mg/kg/injection, schedule: Q01DX001 (ip), vehicle: carboxymethylcellulose (CMC)): 0 of 6; survivor count (dose: 300.0 mg/kg/injection, schedule: Q01DX001 (ip), vehicle: carboxymethylcellulose (CMC)): 0 of 6

**Q.** Which survivor count [5] does the source give for `O=C1c2ccccc2S(=O)N1OCc1ccccc1` (stereo unspecified) here?
**A.** 1 of 3

**Q.** Which survivor count [8] does the source give for `CCOP(=S)(S)OCC.[Ni]` here?
**A.** 1 of 4

**Q.** Which results are given for `ClC1=C(Cl)C(Cl)(Cl)C(Cl)(Cl)C1(Cl)Cl`?
**A.** survivor count (dose: 200.0 mg/kg/injection, schedule: Q01DX009 (ip), vehicle: Klucel (hydroxypropylcellulose) (HPC)): 2 of 6; survivor count [7]: 0 of 6

**Q.** With `CN1CCCN(C(c2ccccc2)c2ccc(Cl)cc2)CC1` (stereo unspecified) as the compound, how does the survivor count (dose: 62.5 mg/kg/injection, schedule: Q01DX009 (ip), vehicle: saline) read?
**A.** 6 of 6

**Q.** And the survivor count (dose: 125.0 mg/kg/injection, schedule: Q01DX009 (ip), vehicle: saline)?
**A.** 0 of 6

**Q.** For `CCCNCCCN`, which survivor count (dose: 100.0 mg/kg/injection, schedule: Q01DX009 (ip), vehicle: saline) is on record?
**A.** 3 of 6

**Q.** What about the survivor count [6] of the same compound?
**A.** 0 of 6

**Q.** `C=CC(COC(C)=O)N1CC1` (stereo unspecified) was tested. Which T/C (dose: 30.0 mg/kg/injection, schedule: Q01DX Z (oral), vehicle: saline) did it give?
**A.** 128 % of control

**Q.** And the survivor count (dose: 50.0 mg/kg/injection, schedule: Q01DX Z (ip), vehicle: carboxymethylcellulose (CMC))?
**A.** 1 of 6

**Q.** And the survivor count (dose: 60.0 mg/kg/injection, schedule: Q01DX Z (ip), vehicle: saline)?
**A.** 0 of 6

**Q.** What about the survivor count (dose: 200.0 mg/kg/injection, schedule: Q01DX Z (ip), vehicle: carboxymethylcellulose (CMC)) of the same compound?
**A.** 0 of 6

**Q.** How did the survivor count (dose: 100.0 mg/kg/injection, schedule: Q01DX001 (ip), vehicle: saline) turn out when `CC1(C)N=C(N)N=C(N)N1c1ccc(Cc2ccccc2)cc1` was run?
**A.** 0 of 6

**Q.** What about the survivor count (dose: 200.0 mg/kg/injection, schedule: Q01DX001 (ip), vehicle: saline) of the same compound?
**A.** 0 of 6

**Q.** And the survivor count [8]?
**A.** 0 of 6

**Q.** For `O=C(CCCC(=O)N/N=C/c1cccc(Br)c1)N/N=C\c1cccc(Br)c1`, which survivor count (dose: 200.0 mg/kg/injection, schedule: Q01DX001 (ip), vehicle: carboxymethylcellulose (CMC)) is on record?
**A.** 4 of 4

**Q.** And the survivor count (dose: 400.0 mg/kg/injection, schedule: Q01DX001 (ip), vehicle: carboxymethylcellulose (CMC))?
**A.** 4 of 4

**Q.** `O=c1[nH][nH]c(=O)c2c1oc1c(=O)[nH][nH]c(=O)c12` was tested. Which survivor count (dose: 100.0 mg/kg/injection, schedule: Q01DX001 (ip), vehicle: saline sonified) did it give?
**A.** 0 of 6

**Q.** And the survivor count (dose: 200.0 mg/kg/injection, schedule: Q01DX001 (ip), vehicle: saline sonified)?
**A.** 0 of 6

**Q.** What about the survivor count (dose: 400.0 mg/kg/injection, schedule: Q01DX001 (ip), vehicle: saline sonified) of the same compound?
**A.** 0 of 6

**Q.** How did the survivor count [7] turn out when `O=C(/C=C/c1ccccc1)N/N=C/c1cccs1` was run?
**A.** 6 of 6

**Q.** With `O=C(O)C(Cl)C(=O)O` as the compound, how does the survivor count (dose: 75.0 mg/kg/injection, schedule: Q04DX003 (ip), vehicle: saline) read?
**A.** 3 of 6

**Q.** What about the survivor count [1] of the same compound?
**A.** 0 of 6

**Q.** And the survivor count [2]?
**A.** 1 of 6
